This is an account of results in patent US6011135A, “Triazine thiol derivative having a perfluoro group, method for producing same and use of same” (Iwate University, priority 1997, dated 2000).

The nature of series [1]: Tribological treatment of metals (circular cutting), GPC of film dissolved from cuttings, copper column. The following applies: Na salt 5×10^-3 mol/L in water based lubricant.
Series [2] in a line: Dipping treatment of metals: contact angle of water, iron. The following applies: Na salt 1×10^-3 mol/L in water, 70° C., 30 minutes.
Series [3] is described as follows: Dipping treatment of metals: contact angle of water, silver. The following applies: Na salt 1×10^-3 mol/L in water, 70° C., 30 minutes.
Series [4] is described as follows: Dipping treatment of metals: contact angle of water, copper. The following applies: Na salt 1×10^-3 mol/L in water, 70° C., 30 minutes.
The nature of series [5]: Dipping treatment of metals: eluting potential from anodic polarization curve, iron. The following applies: Na salt 1×10^-3 mol/L, 70° C., 30 minutes, electrolyte (NaPo3)6 0.1 M.
Series [6] can be described thus: Dipping treatment of metals: contact angle of water, nickel. The following applies: Na salt 1×10^-3 mol/L in water, 70° C., 30 minutes.
Series [7] in a line: Electrolytic polymerization treatment of metals, GPC of dissolved film, SUS 304 plate. The following applies: Na salt 5×10^-3 mol/L, 0.1 mA/cm^2, 10 minutes, 40° C.; for Number-average molecular weight: film.
Series [8] is described as follows: Dipping treatment of metals: eluting potential from anodic polarization curve, copper. The following applies: Na salt 1×10^-3 mol/L, 70° C., 30 minutes, electrolyte (NaPo3)6 0.1 M.
A short description of series [9]: Dipping treatment of metals: eluting potential from anodic polarization curve, silver. The following applies: Na salt 1×10^-3 mol/L, 70° C., 30 minutes, electrolyte (NaPo3)6 0.1 M.
Series [10] in a line: Tribological treatment of metals (circular cutting), GPC of film dissolved from cuttings, iron column. The following applies: for Amount of film / Number-average molecular weight: iron column, Na salt 5×10^-3 mol/L in water based lubricant; for Number-average molecular weight: film.
A short description of series [11]: Dipping treatment of metals: eluting potential from anodic polarization curve, nickel. The following applies: Na salt 1×10^-3 mol/L, 70° C., 30 minutes, electrolyte (NaPo3)6 0.1 M.
[12] abbreviates: Table 7, iron and copper columns.

Each structure is given as a SMILES string.

As to `FC(F)(F)C(F)(F)C(F)(F)C(F)(F)C(F)(F)C(F)(F)C(F)(F)c1ccc(Nc2nc(S)nc(S)n2)cc1` [Comparative example, reference compound], the Amount of film in [1] is less than 0.1 µg/g; in [7], 0.6 μg/cm^2; in [10] it was less than 0.1 µg/g. Further, the Contact angle in [2] was 90 °; in [3], 106 °; in [4], 114 °; in series [6], 110 °. Besides, the Eluting potential is 1.4 V vs SCE in series [5], 0.2 V vs SCE in [8], 0.5 V vs SCE in [9] and 1.6 V vs SCE in series [11]. In addition, the results for the Number-average molecular weight in series [7] and in series [10] were 12,000 and 1,500, respectively. Besides, the “amount of film (in words)” value in series [10] (setting [12]) is “very little”. Further, the “molecular weight of the dissolved compound (in words)” value in series [10] (setting [12]) is listed as “a dimer or a trimer”.
As for `FC(F)(F)C(F)(F)C(F)(F)C(F)(F)C(F)(F)C(F)(F)CNc1nc(S)nc(S)n1` [Example 19], the Contact angle in [2] came out at 113 °; in [3] it was 121 °; in series [4] it was 121 °; in series [6], 117 °. For the same compound, the Eluting potential in [5] was 1.5 V vs SCE; in series [8], 1.7 V vs SCE; in series [9] it was 1.1 V vs SCE; in [11] it was 1.75 V vs SCE.
For `CCCCN(CC(F)(F)C(F)(F)C(F)(F)C(F)(F)C(F)(F)C(F)(F)C(F)(F)F)c1nc(S)nc(S)n1` [Example 20], the Amount of film was found to be 6.4 µg/g in series [1], 12.6 μg/cm^2 in series [7] and 1.6 µg/g in [10]. Besides, the Contact angle in series [2] is given as 114 °; in series [3], 121 °; in series [4], 120 °; in [6], 119 °. The Eluting potential in series [5] is given as 1.6 V vs SCE; in [8], 1.9 V vs SCE; in series [9], 1.5 V vs SCE; in [11], 1.9 V vs SCE. Further, the Number-average molecular weight in series [7] is reported as 340,000; in series [10], 8,200.
As to `FC(F)(F)C(F)(F)C(F)(F)C(F)(F)C(F)(F)C(F)(F)C(F)(F)CN(c1nc(S)nc(S)n1)C1CCCCC1` [Example 21], the Amount of film in series [1] was 6.9 µg/g; in [7], 13.2 μg/cm^2; in series [10], 1.9 µg/g. Besides, the Contact angle in series [2] is 116 °; in series [3], 120 °; in [4], 121 °; in [6], 120 °. Further, the Eluting potential is given as 1.6 V vs SCE in series [5], 1.9 V vs SCE in series [8], 1.6 V vs SCE in series [9] and 1.9 V vs SCE in series [11]. Moreover, the values for the Number-average molecular weight in series [7] and in series [10] were 350,000 and 9,300, respectively.
For `CCCCN(CC(F)(F)C(F)(F)C(F)(F)C(F)(F)C(F)(F)C(F)(F)C(F)(F)C(F)(F)C(F)(F)C(F)(F)F)c1nc(S)nc(S)n1` [Example 22], the Amount of film in series [1] is 7.1 µg/g; in series [7], 13.6 μg/cm^2; in [10] it was 2.1 µg/g. In addition, the Contact angle in series [2] is reported as 112 °; in [3], 120 °; in series [4] it was 120 °; in [6], 121 °. The Eluting potential turned out to be 1.6 V vs SCE in series [5], 1.9 V vs SCE in series [8], 1 V vs SCE in series [9] and 1.9 V vs SCE in series [11]. Moreover, the results for the Number-average molecular weight in series [7] and in series [10] were 330,000 and 9,800, respectively.
`FC(F)(F)C(F)(F)C(F)(F)C(F)(F)C(F)(F)C(F)(F)C(F)(F)CNc1nc(S)nc(S)n1` [Example 23]: the Amount of film in series [1] was 5.4 µg/g; in [7], 6.6 μg/cm^2; in [10], 1.5 µg/g. Also, the Number-average molecular weight in series [7] is 110,000; in series [10], 3,300.
